Test results taken from the supplement of paper PMC10849652.
This is one part of the list.

Amino acid sequences for entries named in this document (tags omitted). A change or cut given only in a name is not applied to a line headed by its entry.
UniProt P51795: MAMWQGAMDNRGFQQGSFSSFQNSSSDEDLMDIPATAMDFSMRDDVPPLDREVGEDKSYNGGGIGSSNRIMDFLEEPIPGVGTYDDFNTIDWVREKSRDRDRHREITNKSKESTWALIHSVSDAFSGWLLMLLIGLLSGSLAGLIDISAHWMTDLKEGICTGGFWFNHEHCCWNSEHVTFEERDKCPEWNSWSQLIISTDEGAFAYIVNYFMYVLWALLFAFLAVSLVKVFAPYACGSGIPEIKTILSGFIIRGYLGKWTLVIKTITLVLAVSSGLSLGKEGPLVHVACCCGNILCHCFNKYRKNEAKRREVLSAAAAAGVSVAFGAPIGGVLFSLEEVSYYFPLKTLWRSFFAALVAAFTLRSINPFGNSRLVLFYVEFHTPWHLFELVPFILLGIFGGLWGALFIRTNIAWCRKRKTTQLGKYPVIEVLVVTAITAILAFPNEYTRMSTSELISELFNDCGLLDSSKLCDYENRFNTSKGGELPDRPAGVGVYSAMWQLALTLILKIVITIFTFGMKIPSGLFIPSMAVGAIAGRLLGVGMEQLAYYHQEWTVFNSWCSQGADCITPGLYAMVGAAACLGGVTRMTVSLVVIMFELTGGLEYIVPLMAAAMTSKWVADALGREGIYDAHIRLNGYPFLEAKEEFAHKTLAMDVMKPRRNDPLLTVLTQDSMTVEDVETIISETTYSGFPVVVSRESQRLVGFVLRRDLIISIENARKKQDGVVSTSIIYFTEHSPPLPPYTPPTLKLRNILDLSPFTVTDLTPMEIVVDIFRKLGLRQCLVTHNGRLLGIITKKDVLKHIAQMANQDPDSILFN
UniProt O95628: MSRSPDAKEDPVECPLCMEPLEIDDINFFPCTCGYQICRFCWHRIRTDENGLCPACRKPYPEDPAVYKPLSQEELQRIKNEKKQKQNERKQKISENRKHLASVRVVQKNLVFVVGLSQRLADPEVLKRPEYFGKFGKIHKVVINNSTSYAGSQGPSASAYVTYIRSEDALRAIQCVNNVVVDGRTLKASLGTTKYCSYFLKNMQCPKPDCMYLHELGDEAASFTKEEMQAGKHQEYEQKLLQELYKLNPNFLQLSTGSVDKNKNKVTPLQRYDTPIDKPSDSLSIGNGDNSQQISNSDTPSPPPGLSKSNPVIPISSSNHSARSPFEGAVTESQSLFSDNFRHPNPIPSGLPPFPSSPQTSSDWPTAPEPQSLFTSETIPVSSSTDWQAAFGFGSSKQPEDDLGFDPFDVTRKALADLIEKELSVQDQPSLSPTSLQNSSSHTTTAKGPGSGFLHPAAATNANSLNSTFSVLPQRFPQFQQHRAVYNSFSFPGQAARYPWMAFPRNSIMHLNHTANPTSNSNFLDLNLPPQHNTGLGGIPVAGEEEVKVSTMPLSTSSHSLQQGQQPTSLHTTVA
UniProt Q13286: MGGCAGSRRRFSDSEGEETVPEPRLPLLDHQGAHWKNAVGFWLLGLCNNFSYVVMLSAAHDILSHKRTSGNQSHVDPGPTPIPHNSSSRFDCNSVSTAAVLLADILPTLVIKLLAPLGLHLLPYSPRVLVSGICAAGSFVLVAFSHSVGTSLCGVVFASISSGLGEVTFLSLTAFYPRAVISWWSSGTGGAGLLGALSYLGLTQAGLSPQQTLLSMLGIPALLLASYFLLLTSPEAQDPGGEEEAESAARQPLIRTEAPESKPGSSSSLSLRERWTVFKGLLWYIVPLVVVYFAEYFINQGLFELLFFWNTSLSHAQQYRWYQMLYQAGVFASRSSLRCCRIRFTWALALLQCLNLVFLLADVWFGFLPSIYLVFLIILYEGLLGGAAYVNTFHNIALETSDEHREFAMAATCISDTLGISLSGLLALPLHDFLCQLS
UniProt Q99653: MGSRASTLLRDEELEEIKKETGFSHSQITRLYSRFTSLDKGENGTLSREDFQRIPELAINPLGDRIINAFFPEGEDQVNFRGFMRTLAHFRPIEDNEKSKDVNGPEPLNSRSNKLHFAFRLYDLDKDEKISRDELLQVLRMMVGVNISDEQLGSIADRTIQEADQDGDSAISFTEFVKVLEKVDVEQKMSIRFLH
UniProt Q86X95: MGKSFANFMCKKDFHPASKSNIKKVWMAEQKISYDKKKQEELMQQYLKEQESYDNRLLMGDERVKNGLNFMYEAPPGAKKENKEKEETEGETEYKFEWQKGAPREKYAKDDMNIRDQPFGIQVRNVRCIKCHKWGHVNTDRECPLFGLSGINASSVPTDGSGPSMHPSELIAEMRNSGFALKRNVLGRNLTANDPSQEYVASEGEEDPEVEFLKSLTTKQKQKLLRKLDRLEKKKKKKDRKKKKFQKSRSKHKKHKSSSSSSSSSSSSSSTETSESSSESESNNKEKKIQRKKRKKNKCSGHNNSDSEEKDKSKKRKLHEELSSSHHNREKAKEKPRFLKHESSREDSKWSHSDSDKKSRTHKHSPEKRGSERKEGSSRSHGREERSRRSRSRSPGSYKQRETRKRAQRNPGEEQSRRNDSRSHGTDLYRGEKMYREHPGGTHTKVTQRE
UniProt Q9Y2V7: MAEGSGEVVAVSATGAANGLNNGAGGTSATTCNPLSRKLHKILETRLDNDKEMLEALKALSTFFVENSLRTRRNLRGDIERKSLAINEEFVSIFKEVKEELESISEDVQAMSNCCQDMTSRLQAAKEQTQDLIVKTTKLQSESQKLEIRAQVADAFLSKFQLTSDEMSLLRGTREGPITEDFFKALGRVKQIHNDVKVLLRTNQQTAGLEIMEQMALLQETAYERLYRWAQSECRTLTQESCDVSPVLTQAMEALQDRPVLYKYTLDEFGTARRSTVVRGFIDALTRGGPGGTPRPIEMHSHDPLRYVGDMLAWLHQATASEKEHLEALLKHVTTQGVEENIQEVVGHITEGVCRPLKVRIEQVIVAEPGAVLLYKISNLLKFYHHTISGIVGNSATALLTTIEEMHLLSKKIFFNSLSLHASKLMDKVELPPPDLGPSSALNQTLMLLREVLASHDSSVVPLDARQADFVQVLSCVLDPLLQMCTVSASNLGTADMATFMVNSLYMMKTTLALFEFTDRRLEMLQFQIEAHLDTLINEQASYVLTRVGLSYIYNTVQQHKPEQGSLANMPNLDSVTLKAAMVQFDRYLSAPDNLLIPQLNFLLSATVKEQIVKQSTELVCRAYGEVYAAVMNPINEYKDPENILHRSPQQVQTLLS
UniProt Q7Z7A1: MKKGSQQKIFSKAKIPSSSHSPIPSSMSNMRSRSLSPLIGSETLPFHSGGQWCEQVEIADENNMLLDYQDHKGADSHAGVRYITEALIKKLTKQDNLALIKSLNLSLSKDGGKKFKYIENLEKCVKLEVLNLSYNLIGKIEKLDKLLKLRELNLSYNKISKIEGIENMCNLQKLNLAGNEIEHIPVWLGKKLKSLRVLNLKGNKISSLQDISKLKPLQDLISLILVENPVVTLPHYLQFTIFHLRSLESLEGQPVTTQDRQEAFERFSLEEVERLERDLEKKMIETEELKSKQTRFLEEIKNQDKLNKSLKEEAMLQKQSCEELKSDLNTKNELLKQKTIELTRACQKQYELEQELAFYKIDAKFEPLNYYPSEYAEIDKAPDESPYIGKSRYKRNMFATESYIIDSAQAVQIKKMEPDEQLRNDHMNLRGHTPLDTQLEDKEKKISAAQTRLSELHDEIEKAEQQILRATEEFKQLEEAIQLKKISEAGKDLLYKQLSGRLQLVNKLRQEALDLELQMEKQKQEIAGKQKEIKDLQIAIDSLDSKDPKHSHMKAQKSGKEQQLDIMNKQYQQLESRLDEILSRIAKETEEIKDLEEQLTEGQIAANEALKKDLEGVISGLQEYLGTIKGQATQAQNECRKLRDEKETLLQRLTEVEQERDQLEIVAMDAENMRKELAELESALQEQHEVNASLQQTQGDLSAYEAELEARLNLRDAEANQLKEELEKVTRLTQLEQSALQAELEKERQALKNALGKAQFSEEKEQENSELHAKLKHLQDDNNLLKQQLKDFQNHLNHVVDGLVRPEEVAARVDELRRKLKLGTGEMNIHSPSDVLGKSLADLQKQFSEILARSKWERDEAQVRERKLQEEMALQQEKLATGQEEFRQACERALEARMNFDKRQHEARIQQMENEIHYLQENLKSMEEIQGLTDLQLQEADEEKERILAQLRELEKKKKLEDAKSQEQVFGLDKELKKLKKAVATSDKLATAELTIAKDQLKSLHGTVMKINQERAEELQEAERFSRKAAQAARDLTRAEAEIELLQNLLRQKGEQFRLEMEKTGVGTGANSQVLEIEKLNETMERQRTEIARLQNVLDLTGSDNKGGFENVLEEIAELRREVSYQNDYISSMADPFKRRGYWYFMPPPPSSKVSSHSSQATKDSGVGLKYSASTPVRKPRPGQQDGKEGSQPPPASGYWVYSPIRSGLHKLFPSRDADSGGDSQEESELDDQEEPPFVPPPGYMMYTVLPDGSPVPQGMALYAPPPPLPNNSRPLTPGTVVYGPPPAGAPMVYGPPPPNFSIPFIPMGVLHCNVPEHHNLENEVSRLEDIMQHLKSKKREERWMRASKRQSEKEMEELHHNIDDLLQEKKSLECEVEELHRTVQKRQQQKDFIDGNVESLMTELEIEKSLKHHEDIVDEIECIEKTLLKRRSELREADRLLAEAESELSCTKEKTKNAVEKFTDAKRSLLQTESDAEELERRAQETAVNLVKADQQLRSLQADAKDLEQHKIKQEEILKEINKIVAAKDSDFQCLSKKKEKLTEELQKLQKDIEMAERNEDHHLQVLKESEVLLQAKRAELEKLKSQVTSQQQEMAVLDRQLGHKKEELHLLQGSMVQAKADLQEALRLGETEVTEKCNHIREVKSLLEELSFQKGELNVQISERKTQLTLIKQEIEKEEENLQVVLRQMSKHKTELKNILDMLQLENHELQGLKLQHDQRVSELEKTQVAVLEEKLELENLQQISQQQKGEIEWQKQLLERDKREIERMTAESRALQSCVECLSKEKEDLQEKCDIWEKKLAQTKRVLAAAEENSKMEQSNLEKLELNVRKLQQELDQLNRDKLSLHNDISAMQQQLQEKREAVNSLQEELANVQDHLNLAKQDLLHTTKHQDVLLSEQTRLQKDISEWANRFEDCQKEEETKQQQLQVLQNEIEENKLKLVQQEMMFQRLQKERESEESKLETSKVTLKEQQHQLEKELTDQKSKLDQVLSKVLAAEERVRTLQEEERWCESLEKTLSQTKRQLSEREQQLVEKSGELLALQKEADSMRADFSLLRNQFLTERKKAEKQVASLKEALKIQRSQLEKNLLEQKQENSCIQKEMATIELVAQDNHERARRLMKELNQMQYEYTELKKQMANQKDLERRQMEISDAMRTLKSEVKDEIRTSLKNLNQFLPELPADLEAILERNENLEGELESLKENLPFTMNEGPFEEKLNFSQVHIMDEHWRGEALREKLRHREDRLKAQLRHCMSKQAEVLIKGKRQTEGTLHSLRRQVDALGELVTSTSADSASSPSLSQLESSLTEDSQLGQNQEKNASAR
UniProt Q8N129: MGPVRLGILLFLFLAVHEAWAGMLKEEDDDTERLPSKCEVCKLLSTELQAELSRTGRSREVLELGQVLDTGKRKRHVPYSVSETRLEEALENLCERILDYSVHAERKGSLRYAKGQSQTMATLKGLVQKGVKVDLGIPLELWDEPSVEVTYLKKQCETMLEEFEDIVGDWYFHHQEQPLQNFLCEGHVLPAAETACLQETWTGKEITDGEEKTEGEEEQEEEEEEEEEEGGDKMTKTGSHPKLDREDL
UniProt P51911: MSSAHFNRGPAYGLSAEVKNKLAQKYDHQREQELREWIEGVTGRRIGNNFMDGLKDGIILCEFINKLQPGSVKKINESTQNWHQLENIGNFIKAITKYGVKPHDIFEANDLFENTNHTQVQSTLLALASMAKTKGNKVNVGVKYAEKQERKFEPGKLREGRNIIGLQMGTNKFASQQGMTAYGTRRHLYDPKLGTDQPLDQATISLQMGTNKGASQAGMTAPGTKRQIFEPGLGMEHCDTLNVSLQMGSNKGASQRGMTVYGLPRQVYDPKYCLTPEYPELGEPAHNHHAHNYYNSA
UniProt Q9Y240: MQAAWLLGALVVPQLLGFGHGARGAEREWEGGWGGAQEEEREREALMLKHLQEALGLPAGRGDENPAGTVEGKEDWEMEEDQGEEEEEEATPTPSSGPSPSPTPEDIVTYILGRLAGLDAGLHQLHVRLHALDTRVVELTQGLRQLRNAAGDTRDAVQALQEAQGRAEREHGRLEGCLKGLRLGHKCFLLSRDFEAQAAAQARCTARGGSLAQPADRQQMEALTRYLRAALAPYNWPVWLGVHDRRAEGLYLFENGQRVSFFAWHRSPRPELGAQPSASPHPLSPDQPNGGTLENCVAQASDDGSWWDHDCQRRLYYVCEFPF
UniProt Q92478: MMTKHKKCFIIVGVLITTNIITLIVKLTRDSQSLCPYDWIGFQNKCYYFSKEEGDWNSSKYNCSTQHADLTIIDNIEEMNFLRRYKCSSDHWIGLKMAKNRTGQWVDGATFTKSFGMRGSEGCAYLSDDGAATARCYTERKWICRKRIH

What was measured:
Experiment in all cases: log2 fold change, soluble protein after heating vs DMSO (PISA); higher = thermal stabilisation; K562 cells, 10 uM, 30 min; active = over 0.2 and 3.5 SD of the protein, either way, in both replicates (recomputed)
[1] = compound: COC1=CC=C(C=C1)CN2C=CC3=C2C=C(C=C3)C(=O)NO
How it was run: (§1)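 K562 cells at 2×10^6 cells/mL were treated with 10 μM compound for 30 min. Aliquots were heated for 3 min across 48°C-58°C, pooled, and extracted in PBS with 0.5% NP-40 at 4°C; soluble protein was the supernatant after 21,000xg for 90 min. Soluble protein was quantified by TMTpro 16plex LC-MS/MS with channel sums equalised, and reported as log2 fold change in thermal stability against DMSO controls, with values from duplicates.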

[2] = compound: CO[C@H]1C[C@@H]2CC[C@@H](C)[C@@](O)(O2)C(=O)C(=O)N2CCCC[C@H]2C(=O)O[C@H]([C@H](C)C[C@@H]2CC[C@H](n3cnnn3)[C@H](OC)C2)CC(=O)[C@H](C)/C=C(\C)[C@@H](O)[C@@H](OC)C(=O)[C@H](C)C[C@H](C)/C=C/C=C/C=C/1C [zotarolimus]
How it was run: as §1

[3] = compound: COc1cc2ncnc(Nc3ccc(F)c(Cl)c3)c2cc1OCCCN1CCOCC1 [gefitinib]
How it was run: as §1

[4] = compound: CON(C)C(=O)N1N=C(c2cc(F)ccc2F)S[C@@]1(CCCN)c1ccccc1 [filanesib]
How it was run: as §1

[5] = compound: COc1cc(C(=O)O)ccc1NC(=O)[C@@H]1N[C@@H](CC(C)(C)C)[C@](C#N)(c2ccc(Cl)cc2F)[C@H]1c1cccc(Cl)c1F [idasanutlin]
How it was run: as §1

[6] = compound: COc1cc(Nc2ncc3c(n2)-c2ccc(Cl)cc2C(c2c(F)cccc2OC)=NC3)ccc1C(=O)O [alisertib]
How it was run: as §1

[7] = compound: COc1cc2nc(-c3cc(F)ccc3O)nc(N[C@@H]3CNC[C@H]3C(C)(C)O)c2cc1OC
How it was run: as §1

[8] = compound: COc1cccc2cc(-c3nc([C@H]4CC[C@H](C(=O)O)CC4)n4ncnc(N)c34)[nH]c12
How it was run: as §1

[9] = compound: CS(=O)(=O)CCNCc1ccc(-c2ccc3ncnc(Nc4ccc(OCc5cccc(F)c5)c(Cl)c4)c3c2)o1 [lapatinib]
How it was run: as §1

[10] = compound: CS(=O)(=O)N1CCN(Cc2cc3nc(-c4cccc5[nH]ncc45)nc(N4CCOCC4)c3s2)CC1 [pictilisib]
How it was run: as §1

Target	log2 fold change [1]	log2 fold change [2]	log2 fold change [3]	log2 fold change [4]	log2 fold change [5]	log2 fold change [6]	log2 fold change [7]	log2 fold change [8]	log2 fold change [9]	log2 fold change [10]
CLCN5 isoform 2 (UniProt P51795)	inactive: -0.011	inactive: -0.004	inactive: 0.011	–	–	–	–	–	–	–
CLASRP (UniProt Q8N2M8)	inactive: 0.017	inactive: -0.332	inactive: 0.267	inactive: 0.113	inactive: -0.021	–	–	–	–	–
CNOT4 isoform 9 (UniProt O95628)	inactive: -0.018	active: -0.373	inactive: 0.053	–	active: -0.334	inactive: 0.018	inactive: 0.106	inactive: 0.019	inactive: -0.083	inactive: 0.045
COG2 (UniProt Q14746)	inactive: -0.006	inactive: -0.048	inactive: -0.187	inactive: 0.25	inactive: -0.053	inactive: 0.58	–	active: 0.631	–	–
CLN3 (UniProt Q13286)	inactive: 0.008	inactive: -0.1	inactive: -0.028	–	–	inactive: 0	inactive: 0.08	inactive: 0.139	inactive: -0.059	–
CHP1 (UniProt Q99653)	inactive: 0.039	inactive: 0.058	inactive: 0.026	inactive: -0.044	inactive: -0.084	inactive: -0.144	inactive: 0.129	inactive: -0.02	inactive: -0.054	inactive: 0.053
CLN6 (UniProt Q9NWW5)	–	inactive: -0.061	inactive: 0.071	inactive: -0.076	inactive: -0.094	inactive: -0.092	inactive: -0.042	inactive: -0.039	inactive: 0.021	–
CIR1 (UniProt Q86X95)	inactive: -0.022	inactive: -0.064	–	inactive: 0.247	inactive: 0.161	inactive: -0.081	inactive: -0.019	inactive: -0.024	inactive: 0.078	inactive: -0.365
COG6 (UniProt Q9Y2V7)	–	inactive: 0.115	–	–	inactive: 0.053	inactive: 0.075	inactive: -0.11	inactive: 0	inactive: 0.131	–
CNN3 (UniProt Q15417)	–	inactive: 0.005	inactive: 0.026	inactive: -0.006	inactive: -0.04	inactive: -0.031	inactive: 0.111	inactive: -0.026	inactive: -0.032	inactive: 0.04
CHUK (UniProt O15111)	–	inactive: 0.076	–	–	inactive: 0.27	inactive: -0.419	–	inactive: 0.092	–	inactive: -0.257
CNTRL (UniProt Q7Z7A1)	–	inactive: -0.122	inactive: -0.005	inactive: 0.226	inactive: 0.056	–	–	–	–	–
CNPY4 (UniProt Q8N129)	–	inactive: 0.099	inactive: 0.012	inactive: 0.071	inactive: 0.017	inactive: -0.113	inactive: 0.064	inactive: 0.056	inactive: 0.117	inactive: -0.026
CIP2A (UniProt Q8TCG1)	–	–	–	inactive: 0.586	–	inactive: 0.73	–	inactive: -0.157	–	inactive: 0.415
CNBP (UniProt P62633)	–	inactive: -0.118	inactive: -0.013	inactive: 0.051	inactive: 0.143	inactive: -0.141	inactive: 0.001	inactive: -0.019	inactive: -0.051	inactive: -0.063
CNN1 (UniProt P51911)	–	inactive: 0.047	inactive: -0.14	inactive: -0.051	inactive: -0.048	inactive: -0.055	inactive: 0.182	inactive: 0.059	inactive: -0.068	inactive: 0.172
CLEC11A (UniProt Q9Y240)	–	–	–	–	–	–	inactive: -0.064	–	inactive: -0.024	–
CLEC2B (UniProt Q92478)	–	–	–	–	–	–	inactive: -0.372	–	inactive: 0.077	–
CLN8 (UniProt Q9UBY8)	–	inactive: 0.13	inactive: 0.075	inactive: 0.068	inactive: -0.145	inactive: 0.04	inactive: -0.019	inactive: -0.015	inactive: 0.012	–

Some values from above:
Value of CLEC2B (UniProt Q92478) under log2 fold change [7]: inactive: -0.372
Value of COG2 (UniProt Q14746) under log2 fold change [4]: inactive: 0.25
